{
  "source": "PubChem BioAssay AID504834",
  "about": "(National Center for Advancing Translational Sciences (NCATS), 2011)",
  "note": "Several values for one entry are separate records, joined by “and”; a condition that tells them apart may be missing. Equal values may be shown once. The whole screen tested about 320,000 compounds, of which about 22,000 (6.9%) were called active. Inconclusive results, whose numbers are uncertain, are shown with a selection of clear calls. The call rests on the fitted dose curve; in most records, active means well fitted inhibition curve with a large enough effect; inconclusive means small, poorly fitted or top-dose-only effect, or another doubt; inactive means no such curve, though single readings can be large or run the other way. A potency beside an inconclusive call is a rough fit, not a confirmed value. Some compounds were tested as several samples or in several runs, with calls that do not always agree. On the % scale 0 is the no-effect control and ±100 the full control effect; potency means the concentration at half of the fitted maximal effect.",
  "data": [
    {"assay": "Primary qHTS for delayed death inhibitors of the malarial parasite plastid, 96 hour incubation", "details": "P. falciparum luciferase reporter growth; series mostly up to 28.7 µM", "summary_of_the_method": "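Two parasite generations (96 h, 37 C, 5% CO2) of compound exposure in infected erythrocytes (0.05% parasitemia, 2% hematocrit). Luciferase-reporter P. falciparum; decreased luminescence indicates inhibited growth, aimed at apicoplast-acting delayed death.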", "values": [
      {"smiles": "CCC1(C2=NCCN2)Cc2ccccc2O1", "note": "(configuration not stated)", "Potency": "inactive and active: 7.57 µM"},
      {"smiles": "COc1ccccc1CC(=O)Nc1ccccc1O", "Potency": "inactive"},
      {"smiles": "COc1ccc(OCC(O)CN2CCCC2)cc1", "note": "(configuration not stated)", "Potency": "inconclusive: 18.5 µM [inhibitor, single point]"},
      {"smiles": "CCCCn1c(=O)c(CC(C)=O)nc2ccccc21", "Potency": "inconclusive: 18.5 µM [inhibitor, single point]"},
      {"smiles": "CN(Cc1ccc2c(c1)OCO2)C(=O)c1cc(-c2ccccc2)c(N2CCOCC2)s1", "Potency": "inconclusive: 13.1 µM [inhibitor, single point]"},
      {"smiles": "CCOC(=O)c1cc(CNC(=O)c2c(C)oc3c2CCCC3)c(C)o1", "Potency": "inconclusive: 10.4 µM [inhibitor, single point]"},
      {"smiles": "O=C(NN1C(=O)c2ccccc2NC1c1ccc([N+](=O)[O-])o1)c1ccc([N+](=O)[O-])cc1", "note": "(configuration not stated)", "Potency": "inconclusive: 7.38 µM [inhibitor, partial curve, poor fit]"},
      {"smiles": "O=C(N/N=C/c1cc(Br)cc(Br)c1O)c1cccc(S(=O)(=O)N2CCOCC2)c1", "Potency": "inconclusive: 11.7 µM [inhibitor, single point]"},
      {"smiles": "COc1cccc(N2CCN(CC(=O)NC(=O)NCc3ccco3)CC2)c1", "Potency": "inconclusive: 10.4 µM [inhibitor, single point]"},
      {"smiles": "CC(=O)Nc1ccc(S(=O)(=O)NC2CC(=O)N(c3ccc(C)cc3)C2)cc1", "note": "(configuration not stated)", "Potency": "inactive"},
      {"smiles": "C/C(=N\\NC(=S)Nc1ccc(C)cc1)c1cc2ccccc2o1", "Potency": "inconclusive: 18.5 µM [inhibitor, single point]"},
      {"smiles": "O=C(Nc1cccc(Cl)c1)NC1CCS(=O)(=O)C1", "note": "(configuration not stated)", "Potency": "inactive"},
      {"smiles": "Cc1ccccc1NC(=O)CSc1nc(N)c(C#N)c(-c2cccs2)c1C#N", "Potency": "inconclusive: 13.1 µM [inhibitor, single point]"},
      {"smiles": "Cc1ccccc1[C@]1(C)ON(c2ccccc2C(F)(F)F)C1=O", "Potency": "active: 1.31 µM"},
      {"smiles": "O=C1CCC/C1=C/Nc1ccc(Cl)cc1", "Potency": "inconclusive: 2.94 µM [inhibitor, single point]"},
      {"smiles": "Fc1ccccc1Sc1ccccc1CNC1=NCCN1", "Potency": "active: 10.4 µM"},
      {"smiles": "COc1ccccc1CNC(=O)Nc1cccs1", "Potency": "inactive"},
      {"smiles": "O=C(Nc1c(C(=O)NCc2ccco2)cnn1-c1ccccc1)c1ccc(F)cc1", "Potency": "inactive"},
      {"smiles": "C=CC[n+]1c(/C=C/c2ccc(OC(C)=O)c(OC)c2)ccc2ccccc21", "Potency": "inconclusive: 1.47 µM [inhibitor, full curve]"},
      {"smiles": "O=[N+]([O-])c1cc(C(F)(F)F)cc([N+](=O)[O-])c1Sc1n[nH]c(C(F)(F)F)n1", "Potency": "inconclusive: 5.22 µM [inhibitor, partial curve, poor fit]"},
      {"smiles": "O=C1/C(=C/c2cccnc2)SC(=S)N1N1CCOCC1", "Potency": "inactive"},
      {"smiles": "COc1ccc(-c2noc(CN3CCN(c4ccccc4F)CC3)n2)cc1OC", "Potency": "inactive"},
      {"smiles": "CN1/C(=C\\C=Nc2ccccc2)C(C)(C)c2ccccc21", "Potency": "inconclusive: 6.57 µM [inhibitor, partial curve]"},
      {"smiles": "COc1cc(OC)c(OC)cc1CNCCSc1nnnn1C", "Potency": "inconclusive: 0.0104 µM [inhibitor, full curve, poor fit]"},
      {"smiles": "S=C(NCCN1CCOCC1)Nc1ccc(Cl)cc1Cl", "Potency": "inconclusive: 0.0294 µM [inhibitor, full curve, poor fit]"},
      {"smiles": "OCCCc1nc2ccccc2[nH]1", "Potency": "inconclusive: 0.928 µM [inhibitor, full curve, poor fit]"},
      {"smiles": "O=C(NCCC1=CCCCC1)C1CCN(S(=O)(=O)c2cccc3cccnc23)CC1", "Potency": "inconclusive: 14.7 µM [inhibitor, single point]"},
      {"smiles": "COc1cccc(C(=O)CSc2nnc(-c3ccco3)n2CC2CCCO2)c1", "note": "(configuration not stated)", "Potency": "inactive"},
      {"smiles": "COc1cccc(-c2cc(C(=O)NCc3ccco3)no2)c1", "Potency": "inconclusive: 4.15 µM [inhibitor, single point]"},
      {"smiles": "COc1ccc(-c2cc(C(=O)OCC(=O)Nc3ccc4c(c3)OCO4)c3ccccc3n2)cc1", "Potency": "inconclusive: 13.1 µM [inhibitor, single point]"},
      {"smiles": "O=C(NCc1ccccc1)c1ccc(CS(=O)(=O)Cc2ccc(F)cc2)o1", "Potency": "inconclusive: 18.5 µM [inhibitor, single point]"},
      {"smiles": "COc1cccc(CCNC(=O)CC2C(=O)NCCN2CC(C)(C)C)c1", "note": "(configuration not stated)", "Potency": "active: 14.7 µM"},
      {"smiles": "C/C(=N\\NC(=S)NCCc1ccccc1)c1cccs1", "Potency": "inactive"},
      {"smiles": "CCOc1ccc(S(=O)(=O)N(CC(=O)NC2CCCCC2C)Cc2ccco2)cc1", "note": "(configuration not stated)", "Potency": "inconclusive: 18.5 µM [inhibitor, single point]"},
      {"smiles": "C=C(C)c1cccc(C(C)(C)NC(=O)Nc2ccc(C)cn2)c1", "Potency": "inconclusive: 2.94 µM [inhibitor, partial curve, poor fit]"},
      {"smiles": "O=C(O)CCCCCCCCCCP(=O)(c1ccccc1)c1ccccc1", "Potency": "inconclusive: 7.38 µM [inhibitor, partial curve, poor fit]"},
      {"smiles": "NC(=O)c1ccsc1NC(=O)COC(=O)c1ccc([N+](=O)[O-])o1", "Potency": "inconclusive: 3.29 µM [inhibitor, partial curve]"},
      {"smiles": "COc1ccc(C2CC(C)(c3ccc(OC)cc3)Nc3ccccc3N2)cc1", "note": "(configuration not stated)", "Potency": "inconclusive: 18.5 µM [inhibitor, single point]"},
      {"smiles": "CCOC(=O)C1(CCCc2ccccc2)CCN(C(=O)CN2CCOC2=O)CC1", "Potency": "active: 14.7 µM"},
      {"smiles": "CN=c1scc(-c2ccccc2F)n1/N=C/c1ccc(O)c(O)c1O", "Potency": "inactive"},
      {"smiles": "COc1ccc(NC(=O)Cc2ccccc2)cc1", "Potency": "inconclusive: 10.4 µM [inhibitor, single point]"},
      {"smiles": "O=C(c1ccco1)N1CCN(c2c(-c3ccccc3)c3cc(Cl)ccc3[nH]c2=O)CC1", "Potency": "inactive"},
      {"smiles": "COC(=O)[C@H]1[C@H]2C[C@@H]3c4[nH]c5ccccc5c4CCN3C[C@H]2C[C@@H](OC(=O)c2cc(OC)c(OC)c(OC)c2)[C@@H]1OC", "Potency": "inactive"},
      {"smiles": "C=CCNC(=O)CSc1nc2scc(-c3ccco3)c2c(=O)n1CC=C", "Potency": "inconclusive: 11.7 µM [inhibitor, single point]"},
      {"smiles": "CCOc1ccc(C(=O)CCC(=O)Nc2ccc(C)cn2)cc1", "Potency": "inconclusive: 11.7 µM [inhibitor, single point]"},
      {"smiles": "O=C(Nc1ccc(Cl)cc1)OCc1ccccn1", "Potency": "inactive"},
      {"smiles": "O=C(Nc1ccccc1N1CCOCC1)C1CCN(S(=O)(=O)c2ccc(F)cc2)CC1", "Potency": "inactive"},
      {"smiles": "COc1ccc(C(=O)C2CCCN(Cc3ccc(C#CCCO)cc3)C2)cc1F", "note": "(configuration not stated)", "Potency": "inactive"},
      {"smiles": "COc1ccc(C(=O)OCC(=O)NC2CCCCCC2)c(OC)c1", "Potency": "inactive"},
      {"smiles": "CCc1ccc(C2CC(c3ccc(Cl)cc3)n3nc(N)nc3N2)cc1", "note": "(configuration not stated)", "Potency": "inconclusive: 7.38 µM [inhibitor, partial curve]"},
      {"smiles": "Cc1ccc(S(=O)(=O)N2CCC(C(=O)OC(C)C(=O)NC3CCCCC3C)CC2)cc1C", "note": "(configuration not stated)", "Potency": "inconclusive: 16.5 µM [inhibitor, partial curve, poor fit]"},
      {"smiles": "Cn1c(SCC(=O)NC2CCCCC2)nnc1-c1ccc(N)cc1", "Potency": "inactive"},
      {"smiles": "CCCN(C(=O)C(NC(=O)c1ccccc1)C(C)C)c1c(N)n(Cc2ccccc2)c(=O)[nH]c1=O", "note": "(configuration not stated)", "Potency": "inconclusive: 18.5 µM [inhibitor, single point]"},
      {"smiles": "C=CCNC(=O)/C(C#N)=C/c1c(C)nn(-c2ccc(Cl)cc2)c1Cl", "Potency": "inconclusive: 4.15 µM [inhibitor, single point]"},
      {"smiles": "Cc1nc(S(=O)(=O)c2cccc(Cl)c2)nc2c1CCC2", "Potency": "inconclusive: 0.0465 µM [inhibitor, full curve, poor fit]"},
      {"smiles": "Nc1c(Cl)ncnc1N/N=C/c1ccncc1", "Potency": "inactive"},
      {"smiles": "CC(C)C(=O)Nc1cc(=O)[nH]c2ncnn12", "activity change, negative = inhibition": "inactive: -2.43% [at 5.75 µM]"},
      {"smiles": "CCCc1nc(SCC(=O)c2ccccc2)c2c(=O)n(C)c(=O)n(C)c2n1", "Potency": "inconclusive: 11.7 µM [inhibitor, single point]"},
      {"smiles": "CN(C)CCN=c1cc(-c2ccccc2)oc2ccc(Cl)cc12", "Potency": "inconclusive: 0.0657 µM [inhibitor, full curve, poor fit]"},
      {"smiles": "Cc1ccc(S(=O)(=O)N2CCCC2C(=O)NCc2ccc3c(c2)OCO3)cc1", "note": "(configuration not stated)", "Potency": "inconclusive: 6.57 µM [inhibitor, partial curve, poor fit]"},
      {"smiles": "CCOc1ccc(NC(=O)COC(=O)CNC(=O)c2ccc(-c3ccccc3)cc2)cc1", "Potency": "inactive"},
      {"smiles": "Cc1ccc(NC(=O)C2(C)Cc3ccccc3C(=O)O2)cc1", "note": "(configuration not stated)", "Potency": "inactive"},
      {"smiles": "COc1ccc(OCC(=O)N2CCN(C(=O)c3ccco3)CC2)cc1", "Potency": "inconclusive: 0.165 µM [inhibitor, full curve]"},
      {"smiles": "Cc1cc2c(cc1S(=O)(=O)CCC(=O)NC1CCC(C)CC1)OCC(=O)N2", "note": "(configuration not stated)", "Potency": "inconclusive: 13.1 µM [inhibitor, partial curve]"},
      {"smiles": "COCCNC(=O)C(c1ccncc1)N(C(=O)c1sc(C)nc1C)c1cccc(C)c1", "note": "(configuration not stated)", "Potency": "inactive"},
      {"smiles": "COC(=O)c1sc(-c2ccc(Cl)cc2)cc1NC(=O)COCC(=O)O", "Potency": "inactive"},
      {"smiles": "COC(=O)C1=C(C)OC(N)=C(C#N)C1c1cc(OC)c(OCC(N)=O)cc1Cl", "note": "(configuration not stated)", "activity change, negative = inhibition": "inactive: -12.5% [at 5.75 µM]"},
      {"smiles": "COc1ccc(N2CCN(C(=S)Nc3ccccc3)CC2)cc1", "Potency": "inconclusive: 11.7 µM [inhibitor, single point]"},
      {"smiles": "Cc1c(CC(=O)NCCCO)c(=O)oc2cc3c(cc12)CCC(C)(C)O3", "Potency": "inactive"},
      {"smiles": "COc1ccc(C)cc1S(=O)(=O)NC1CCCC1", "Potency": "inconclusive: 5.22 µM [inhibitor, partial curve, poor fit]"},
      {"smiles": "Cc1occc1-c1nnc(SCC(=O)c2c[nH]c3ccccc23)n1C", "Potency": "inactive"},
      {"smiles": "O=C(C[n+]1cc(-c2ccccc2)n2c1CCC2)N1c2ccccc2Sc2ccccc21", "Potency": "inconclusive: 2.33 µM [inhibitor, full curve, poor fit]"}
    ]}
  ]
}
